# In article PMC12412103, “An Amyloidogenic Fragment of the Spike Protein from SARS-CoV‑2 Virus Stimulates the Aggregation and Toxicity of Parkinson’s Disease Protein Alpha-Synuclein” (ACS Chemical Neuroscience, 2025):
# Protein sequences, listed by entry. Tags and fused reporters are not part of them. Lines headed by an entry give the natural chain unless they say otherwise; changes in a name come on top.
# UniProt P05067: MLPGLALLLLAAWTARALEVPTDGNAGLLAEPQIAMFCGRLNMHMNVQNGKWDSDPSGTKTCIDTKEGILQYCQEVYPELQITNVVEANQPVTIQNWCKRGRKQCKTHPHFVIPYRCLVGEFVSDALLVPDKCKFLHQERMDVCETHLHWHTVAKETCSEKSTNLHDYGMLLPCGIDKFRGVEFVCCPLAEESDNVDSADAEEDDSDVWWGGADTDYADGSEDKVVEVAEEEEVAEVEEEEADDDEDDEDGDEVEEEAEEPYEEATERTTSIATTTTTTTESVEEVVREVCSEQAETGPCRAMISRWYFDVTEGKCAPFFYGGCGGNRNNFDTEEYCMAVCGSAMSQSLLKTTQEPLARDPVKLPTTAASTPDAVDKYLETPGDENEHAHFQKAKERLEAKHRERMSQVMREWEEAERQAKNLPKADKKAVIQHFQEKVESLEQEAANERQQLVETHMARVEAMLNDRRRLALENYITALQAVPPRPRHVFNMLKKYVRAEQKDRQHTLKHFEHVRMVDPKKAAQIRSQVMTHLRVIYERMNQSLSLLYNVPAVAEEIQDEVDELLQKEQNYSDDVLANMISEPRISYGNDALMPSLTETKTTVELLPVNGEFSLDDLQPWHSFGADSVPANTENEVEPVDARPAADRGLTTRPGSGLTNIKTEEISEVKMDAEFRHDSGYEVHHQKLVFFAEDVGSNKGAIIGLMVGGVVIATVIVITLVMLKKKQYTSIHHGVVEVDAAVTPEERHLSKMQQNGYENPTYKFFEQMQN
# Assay: Transmission electron microscopy (TEM) of aggregates
# Settings: end of the incubation time
row,Substance,aggregate morphology by TEM
1,"fAβ25–35 (GSNKGAIIGLM; Amyloid-beta protein 42 fibrillar; UniProt P05067 696-706, looked up, fragment)",highly heterogeneous branched aggregates
2,fAβ1–42,"tiny and short fibrillar aggregates, as well as a minor population of amorphous aggregates"
